Data taken from ChEMBL document CHEMBL3988442, “University of Dundee, Small-Polar-MMV Screening Library” (2021).

The chains behind the UniProt entries cited, without tags or fusion partners.
UniProt E9BF75, entry or part of it: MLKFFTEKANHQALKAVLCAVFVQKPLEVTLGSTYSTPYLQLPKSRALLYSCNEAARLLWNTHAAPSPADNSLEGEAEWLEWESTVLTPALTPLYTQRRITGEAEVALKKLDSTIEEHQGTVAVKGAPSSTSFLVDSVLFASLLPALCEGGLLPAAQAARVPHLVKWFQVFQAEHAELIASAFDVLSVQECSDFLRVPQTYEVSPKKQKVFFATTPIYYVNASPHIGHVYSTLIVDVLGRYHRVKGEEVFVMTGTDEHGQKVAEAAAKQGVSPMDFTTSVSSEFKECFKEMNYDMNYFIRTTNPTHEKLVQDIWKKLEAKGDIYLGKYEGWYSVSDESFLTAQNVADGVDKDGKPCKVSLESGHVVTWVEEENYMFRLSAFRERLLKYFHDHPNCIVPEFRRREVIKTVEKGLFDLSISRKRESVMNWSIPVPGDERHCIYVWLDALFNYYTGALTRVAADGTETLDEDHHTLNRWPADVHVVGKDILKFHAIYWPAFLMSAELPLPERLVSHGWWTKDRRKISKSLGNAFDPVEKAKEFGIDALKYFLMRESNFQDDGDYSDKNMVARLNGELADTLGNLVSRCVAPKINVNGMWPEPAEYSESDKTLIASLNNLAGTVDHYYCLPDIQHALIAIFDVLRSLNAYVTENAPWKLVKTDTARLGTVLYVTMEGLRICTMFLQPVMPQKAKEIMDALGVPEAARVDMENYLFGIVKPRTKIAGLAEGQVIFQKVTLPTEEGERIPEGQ

LdMetRS: 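Primary screen of methionyl-tRNA synthetase; the read-out is not stated. Target: Methionyl-tRNA synthetase (putative), Leishmania donovani (UniProt E9BF75). The test concentration is not given. Values are per cent inhibition. About 68,000 compounds were tested under these conditions; 0.035% (about 24) showed 50% or more at least once.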
Mtb heat-shock: 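Assay on Mycobacterium tuberculosis, filed only as a heat shock assay from Cornell; the read-out is not stated. The concentration is filed as 10 mM, unlikely as a test dose, so the dose is not known. The record gives no direction; compounds that gave an IC50 in retests scored well above the rest, so higher reads as stronger inhibition. About 69,000 compounds were tested under these conditions; 1.4% (about 930) showed 50% or more at least once.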

All values are in %.
The controls that fix the scale are not given in the record; negative values are as filed.
This is an unselected part of the compounds tested.
A dash means the value is not listed here; it may have been measured.

compound	LdMetRS	Mtb heat-shock
Cc1nccn1-c1ccc(NC(=O)C2CCCN2CC2CC2)cc1 (stereo not given)	10.51	-13.54
Cc1nc(CO[C@@H]2CN(Cc3cccnc3)[C@@H]3COC[C@@H]32)cs1	18.12	-
Cc1[nH]/c(=N\C(=O)c2csc(NC3CC3)n2)sc1C	19.26	102.4
CCc1ccc2nc(NCCOCCO)cc(C)c2c1	8.824	-11.64
CCS(=O)(=O)CCNC(=O)NC(C)c1ccc(C)s1 (stereo not given)	14.93	17.25
O=C(CN1CC(c2nc(-c3ccco3)no2)C1)NCCc1ccccc1	14.97	-
N#Cc1ccc(C(=O)N2CCC3(CC2)C(=O)Nc2ccccc23)cn1	17.47	-10
CN1CCN(c2cnn(CCn3cccn3)c(=O)c2)CC1	10.63	2.362
CCc1cnc(NCCS(=O)(=O)CC(C)C)nc1	8.065	1.391
O=C(O)C(F)(F)F.O=C(O)C(F)(F)F.[H][C@@]12C[C@@H](OCc3cccnc3)CN1CCN(C(=O)c1cccc(F)c1)C2	-	-1.159
Cc1nc(C(=O)N2CCC(c3cc(CCO)n(C)n3)C2)co1 (stereo not given)	2.222	-20.94
CN(C)C(=O)CCC(=O)N1CCC2(CC1)COC2	6.111	-20.05
CN(Cc1ccc(F)cc1)[C@@H]1CN(S(=O)(=O)N(C)C)C[C@H]1O	6.854	-3.099
Cc1noc(C)c1C(=O)NCC(c1ccc(F)cc1)N(C)C (stereo not given)	13.02	11.4
O=c1cc(CSc2nnc[nH]2)nc2sc3c(n12)CCCC3	15.25	18.02
O=S(=O)(c1cccs1)N1Cc2nc(COCC3CC3)oc2C1	4.692	6.384
Cc1nn(C)c(N2CCCN(C)CC2)c1CNC(=O)CCC(C)C	8.355	12.74
O=C(O)c1ccc(CCNC(=O)C2(c3ccccc3)CC2)cc1	6.15	-26.16
CC(C)c1nnc2n1CCN(c1nn3cc(C(C)(C)C)nc3s1)C2	2.842	-3.41
CC1CN(C(=O)C2(c3ccc(F)cc3F)CCOCC2)CCO1 (stereo not given)	-	4.751
CCC(=O)N1CCC[C@]2(C(=O)N(C)C)CN(c3ccccn3)C[C@@H]2C1	-4.11	-
COCCN1CCCC(O)(CN2CCN(c3cc(C)ccn3)CC2)C1=O (stereo not given)	12.64	-2.596
Cc1noc(CN(C)Cc2cnc(N3CCOCC3)nc2)n1	9.091	-52.38
O=C(O)C(F)(F)F.[H][C@@]12CCN(c3ncccn3)C[C@]1([H])[C@H](C(=O)NCC1CC1)CCO2	-	-31.64
Cc1nc(N2CCCCC2)ncc1-c1cc(O)nc(N2CCCCC2)n1	-17.34	-15.7
O=C(Nc1cnc2n1CCCC2)C1CCNCC1	6.034	-26.51
COc1ccc(C(CO)NC(=O)Nc2cccnc2)cc1 (stereo not given)	3.261	-0.4124
c1ccc(COC[C@@H]2CCC[C@]23CN(Cc2nccs2)CCO3)nc1	5.97	-
COCCC(=O)N1CCC(C(=O)c2cc(C)cnc2N)CC1	8.414	3.746
Cc1ccc(OCCC(=O)N(C)CCC#N)cc1C	5.744	6.396
c1cnn(CC2CN(CCc3ccncc3)CCO2)c1 (stereo not given)	10.42	7.008
O=C(c1ccc(C2CCCN2)s1)N1CCN(C(=O)N2CCOCC2)CC1 (stereo not given)	2.235	-2.32
Cc1c(CCC(=O)Nc2ccc(Cl)cn2)cnn1C	-7.182	6.042
CCc1[nH]ncc1C(=O)N1CCCN(Cc2cnn(C)c2)CC1	8.333	10.35
Cc1cc(NC(=O)NCC(C)N2CCOCC2)n(C)n1 (stereo not given)	20	-2.386
CCN(CC)C(=O)N1CCN(C2=NCC(C)S2)CC1 (stereo not given)	7.343	0.4882
CCC(=O)N1CCc2nc(N3CCOCC3)nc(N(C)C)c2CC1	0.3623	-27.51
CC(C)NC(=O)N1CC(=O)c2sc(NC3CCCCC3)nc2C1	7.524	1.144
COCCOc1ncccc1-c1noc([C@@H]2CCCN2C2CCC2)n1	7.119	-5.198
Fc1ccc(CCC2CCCN(Cc3c[nH]cn3)C2)c(F)c1 (stereo not given)	11.54	-1.464
Cc1cn2c(n1)CCC(NC(=O)c1cncnc1C)C2 (stereo not given)	13.26	12.97
O=C(NCCC(O)c1cccs1)c1ccc(Br)o1 (stereo not given)	7.971	40.49